Taken from: PubChem BioAssay AID504791 (Drosophila RNAi Screening Center, 2011)
Aim: 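Genes whose knock-down strengthens or weakens small-RNA reporter silencing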 (primary screen). Cell system: Drosophila S2-derived reporter cells. Reagent: long dsRNA against Drosophila genes, about 150-250 ng dsRNA per well (siRNA assay); about 80-120 ng (miRNA assay). Time to read-out: about 5 days (siRNA assay); about 4 days (miRNA assay). Conditions: copper sulfate induction of reporters: 25 µM (siRNA assay); 200 mM stated (miRNA assay), 1-2 days before reading. Measured: 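Per-well ratio of Renilla over firefly light, expressed relative to that plate's average ratio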. Reading the numbers: siRNA reporter hit score: higher = 3 marks a strong hit with raised ratio; -3 a strong hit with lowered ratio. Rule for the call: 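First-pass picks had plate-scaled ratios over 1.5 for the siRNA assay, over 1.6 for the miRNA assay, or under 0.6; two distinct dsRNAs had to score alike on retest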.
The screen tested about 23,000 reagents; below is a random part of those with a known target gene and a result. Over the whole deposit, 199 (0.86%) are marked active. 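Plate-scaled ratios behind the calls are not deposited; printed light signals are raw; many rows marked increased or decreased are still called inactive.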 Entries without a mark were called inactive. Reagents against one gene are numbered here. Names joined by + are all predicted targets of the reagent.

gene knocked down	reagent	siRNA reporter hit score	stable siRNA reporter change	miRNA reporter change	stable assay Renilla, run 1 (luminescence)	stable assay firefly, run 1 (luminescence)
comm3 (GeneID 39696)	1				8826	4.13e5
comm3 (GeneID 39696)	2				8064	3.68e5
comm3 (GeneID 39696)	3			reporter ratio raised past the hit cutoff	8806	3.41e5
Hsc70-1 (GeneID 39542)	1				8752	7.75e5
Miro (GeneID 42845)	1				10545	5.50e5
topi (GeneID 41199)	1				6963	3.72e5
CG44836 (GeneID 39825)	1				7934	3.30e5
TwdlK (GeneID 43205)	1				4980	3.62e5
Gr22d (retired record) (GeneID 3772682)	1				8402	4.56e5
CG13801 (GeneID 38299)	1				6574	4.50e5
pelo (GeneID 34286)	1				18948	1.00e6
vilya (GeneID 31264)	1				6230	3.52e5
Ldh (GeneID 45880)	1		reporter ratio raised past the hit cutoff		5870	2.47e5
Scp1 (GeneID 3355102)	1				4767	3.83e5
Scp1 (GeneID 3355102)	2				4847	4.53e5
Scp1 (GeneID 3355102)	3				5620	3.48e5
CG13064 (GeneID 2768963)	1				7378	3.55e5
CG13724 (GeneID 39927)	1				6706	4.32e5
BomS2 (GeneID 49802)	1				9361	6.09e5
CG7148 (GeneID 40432)	1				9017	3.71e5
MME1 (GeneID 33987)	1				15299	5.64e5
CG12464 (GeneID 36516)	1				6100	2.90e5
CG4982 (GeneID 39794)	1				4108	4.43e5
CG3703 (GeneID 31045)	1				6412	3.80e5
CG3703 (GeneID 31045)	2				6380	3.60e5
CG3703 (GeneID 31045)	3				6555	3.45e5
CG11099 (GeneID 37282)	1				7427	4.33e5
COX6CL (GeneID 318868)	1				5079	5.12e5
Jon99Ci (GeneID 43545)	1				7294	3.70e5

Continued, starting with the last 8 of the part before.
gene knocked down	reagent	siRNA reporter hit score	stable siRNA reporter change	miRNA reporter change	stable assay Renilla, run 1 (luminescence)	stable assay firefly, run 1 (luminescence)
CG12464 (GeneID 36516)	1				6100	2.90e5
CG4982 (GeneID 39794)	1				4108	4.43e5
CG3703 (GeneID 31045)	1				6412	3.80e5
CG3703 (GeneID 31045)	2				6380	3.60e5
CG3703 (GeneID 31045)	3				6555	3.45e5
CG11099 (GeneID 37282)	1				7427	4.33e5
COX6CL (GeneID 318868)	1				5079	5.12e5
Jon99Ci (GeneID 43545)	1				7294	3.70e5
Ebp (GeneID 38009)	1			reporter ratio lowered past the hit cutoff	8710	9.63e5
MED20 (GeneID 43952)	1	-3			7179	3.50e5
Syx17 (GeneID 38541)	1				8098	4.82e5
CG15756 (GeneID 32308)	1				5152	3.99e5
BI-1 (GeneID 38936)	1				8306	5.13e5
L2HGDH (GeneID 35156)	1			reporter ratio lowered past the hit cutoff	1.70e5	1.44e6
ksr (GeneID 40660)	1				5843	2.78e5
Nplp4 (GeneID 50190)	1		reporter ratio lowered past the hit cutoff		7359	6.75e5
CG12438 (GeneID 34202)	1				7890	5.00e5
Naxe (GeneID 31944)	1				5399	3.49e5
Strump (GeneID 39766)	1				7685	2.86e5
CG7149 (GeneID 34063)	1				14838	5.07e5
CG30159 (GeneID 35611)	1				1.10e5	1.27e6
CG9304 (GeneID 37500)	1				7739	4.59e5
GstT1 (GeneID 35995)	1				6546	3.47e5
CG11816 (GeneID 32310)	1				4439	2.72e5
e (GeneID 42521)	1				10132	3.47e5
CG12071 (GeneID 43660)	1		reporter ratio raised past the hit cutoff		6694	2.45e5
CG12071 (GeneID 43660)	2				5215	4.62e5
CG11839 (GeneID 43006)	1				6959	3.37e5
CG4596 (GeneID 41312)	1				7575	4.21e5
CG4984 + CG4975	1				5459	2.94e5
CG4984 + CG4975	2				6999	3.21e5
CG9676 (GeneID 32647)	1				6070	5.10e5
exp (GeneID 36276)	1			reporter ratio lowered past the hit cutoff	4267	2.12e5
Pde11 (GeneID 35107)	1				4612	3.55e5
Pde11 (GeneID 35107)	2				5358	4.21e5
Ufl1 (GeneID 40843)	1				7872	3.86e5
